Measured values published in US7687470B2, “Avermectin and avermectin monosaccharide substituted in the 4″- and 4″ position respectively” (Syngenta Crop Protection, Inc., priority 2005, dated 2010).
Some results were stated once for a whole list of compounds, not compound by compound.

What was measured:
Format in all cases: in vivo
[1] = tested on: Spodoptera littoralis; assay: Activity against Spodoptera littoralis (sprayed soya bean plants); details: 12.5 ppm active compound, spray on soya bean plants, first-stage caterpillars, evaluated 3 days later vs untreated
[2] = tested on: Frankliniella occidentalis; assay: Activity against Frankliniella occidentalis (sprayed bean leaf discs); details: 12.5 ppm, sprayed bean leaf discs on agar, mixed population, evaluated after 10 days vs untreated
[3] = tested on: Tetranychus urticae; assay: Activity against Tetranychus urticae (sprayed bean plants); details: 12.5 ppm, spray on infested bean plants, mixed population, 25° C. for 6 days vs untreated
[4] = tested on: Plutella xylostella; assay: Activity against Plutella xylostella caterpillars (sprayed cabbage plants); details: 12.5 ppm, spray on cabbage plants, first-stage caterpillars, evaluated after 3 days vs untreated
[5] = tested on: Heliothis virescens; assay: Activity against Heliothis virescens (eggs on filter paper); details: 0.8 ml test solution with 12.5 ppm on filter paper, 0- to 24-hour-old eggs, evaluated after 6 days vs untreated
[6] = tested on: Spodoptera littoralis; assay: Activity against Spodoptera littoralis, systemic (maize seedlings in test solution); details: 12.5 ppm in test solution, maize seedlings 6 days, L1 larvae on cut leaves, evaluated 4 days later vs untreated

Measured: reduction in the pest population

CCC(C)C1OC2(C=CC1C)CC1CC(CC=C(C)C(OC3CC(OC)C(OC4CC(OC)C(C)(NC(=O)COC)C(C)O4)C(C)O3)C(C)C=CC=C3COC4C(O)C(C)=CC(C(=O)O1)C34O)O2 (stereo not drawn) [Table A13]
more than 80%: all assays above

C=CC1(NC(=O)OC)C(C)OC(OC2C(C)=CCC3CC(CC4(C=CC(C)C(C(C)CC)O4)O3)OC(=O)C3C=C(C)C(O)C4OCC(=CC=CC2C)C34O)CC1OC (stereo not drawn) [Table D8]
more than 80%: all assays above

CCC(C)C1OC2(C=CC1C)CC1CC(CC=C(C)C(OC3CC(OC)C(C)(N)C(C)O3)C(C)C=CC=C3COC4C(O)C(C)=CC(C(=O)O1)C34O)O2 (stereo not drawn) [Table D1]
more than 80%: all assays above

CCC(C)C1OC2(C=CC1C)CC1CC(CC=C(C)C(OC3CC(OC)C(OC4CC(OC)C5(C=CCN5)C(C)O4)C(C)O3)C(C)C=CC=C3COC4C(O)C(C)=CC(C(=O)O1)C34O)O2 (stereo not drawn) [Table H1]
more than 80%: all assays above

C=CC1(NC(C)=O)C(C)OC(OC2C(C)=CCC3CC(CC4(C=CC(C)C(C(C)CC)O4)O3)OC(=O)C3C=C(C)C(O)C4OCC(=CC=CC2C)C34O)CC1OC (stereo not drawn) [Table D6]
more than 80%: all assays above

CCC(C)C1OC2(C=CC1C)CC1CC(CC=C(C)C(OC3CC(OC)C(OC4CC(OC)C(C)(NC=O)C(C)O4)C(C)O3)C(C)C=CC=C3COC4C(O)C(C)=CC(C(=O)O1)C34O)O2 (stereo not drawn) [Table A8]
more than 80%: all assays above

CCC(C)C1OC2(C=CC1C)CC1CC(CC=C(C)C(OC3CC(OC)C(OC4CC(OC)C(C)(NS(N)(=O)=O)C(C)O4)C(C)O3)C(C)C=CC=C3COC4C(O)C(C)=CC(C(=O)O1)C34O)O2 (stereo not drawn) [Table A24]
more than 80%: all assays above

C=CC1(N)C(C)OC(OC2C(C)=CCC3CC(CC4(C=CC(C)C(C(C)CC)O4)O3)OC(=O)C3C=C(C)C(O)C4OCC(=CC=CC2C)C34O)CC1OC (stereo not drawn) [Table D2]
more than 80%: all assays above
